No constants are given. Whether binding was seen depends on the method and setting. In cells and extracts the contact can be indirect. Some entries that bind do so weakly or less than the wild type.
Biological target: integrin β1 (human (endogenous in hLECs)) (UniProt P05556)
Assay: proximity ligation

By UniProt entry, the sequences of proteins in these tests, tags left out.
UniProt P05556: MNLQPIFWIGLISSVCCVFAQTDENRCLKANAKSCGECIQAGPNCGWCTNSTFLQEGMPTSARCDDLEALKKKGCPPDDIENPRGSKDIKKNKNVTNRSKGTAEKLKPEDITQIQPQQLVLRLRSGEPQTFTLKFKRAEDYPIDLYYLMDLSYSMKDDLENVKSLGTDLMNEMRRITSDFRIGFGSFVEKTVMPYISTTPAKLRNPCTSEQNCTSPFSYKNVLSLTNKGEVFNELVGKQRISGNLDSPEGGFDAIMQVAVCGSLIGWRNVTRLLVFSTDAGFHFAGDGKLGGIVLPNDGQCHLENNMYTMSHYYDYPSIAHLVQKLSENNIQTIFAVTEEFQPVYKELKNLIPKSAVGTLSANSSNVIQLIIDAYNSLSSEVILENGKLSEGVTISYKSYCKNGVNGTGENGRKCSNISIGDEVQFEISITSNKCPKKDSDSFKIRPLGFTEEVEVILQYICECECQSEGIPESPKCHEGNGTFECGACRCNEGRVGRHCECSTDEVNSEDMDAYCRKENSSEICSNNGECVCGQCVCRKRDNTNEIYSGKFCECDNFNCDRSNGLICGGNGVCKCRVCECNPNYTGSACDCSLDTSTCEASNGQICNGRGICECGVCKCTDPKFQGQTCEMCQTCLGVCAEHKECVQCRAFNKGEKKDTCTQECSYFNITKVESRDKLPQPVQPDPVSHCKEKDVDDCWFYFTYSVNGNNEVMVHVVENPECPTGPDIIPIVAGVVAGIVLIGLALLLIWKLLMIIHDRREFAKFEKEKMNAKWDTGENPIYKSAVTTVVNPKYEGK

- binding: binds
Substance: tetraspanin CD63 (from UniProt P08962 1-238)

From doi:10.1101/2024.05.06.592341
